The reference is the same well before dosing, and untreated signal decays as well.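 Fibroblast labels denote human fibroblasts, mainly primary ones from uterus (C12385, HUF), lung (H6013), bone (Hs27A), adrenal (HADF) and skin (WS1), plus mammary HMF and breast cancer-associated Hs343T. Cancer cells are basal-like or mesenchymal-like triple-negative breast cancer lines. A hit is a response shift exceeding 3x replicate standard deviation. The tissue of the other fibroblasts is not given here.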 Numbered stars: 1 amine (or outer) side, 2 acyl side, 3 side chain; on linkers, the order of the positions; unused ones are H or OH. Bridge positions count the residues as written; N and C are the ends. Square brackets hold non-standard residues; d marks the D form. Peptide text beside a SMILES is read from it. I, II: the chains in the order shown. Actinocin(9to1) = Cc1c2oc3c(C)ccc(C(=O)[*:1])c3nc-2c(C(=O)[*:2])c(N)c1=O; NMeV = CN[C@H](C(=O)O)C(C)C; Sar = CNCC(=O)O
System: HCC1143
Assay: relative JC-1 red fluorescence (viability) vs pre-drug, coculture with fibroblast (fraction); higher = more viable cancer cells
Procedure: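 JC-1 labelled TNBC cells cocultured 1:1 (1,500 cells each) with CellTrace Violet stained primary or stromal fibroblasts in 384-well plates in FluoroBrite medium, treated with one of 42 anticancer drugs at 0.1, 1, 10 or 100 uM. JC-1 red fluorescence (mitochondrial integrity in cancer cells only) was read by plate reader every 8 h for 72 h. Values are normalised to each well's pre-drug value. The stock of one drug was tenfold lower, so its dose labels may be too high.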

Cc1c2oc3c(C)ccc(C(=O)N[C@@H]4C(=O)N[C@H](C(C)C)C(=O)N5CCC[C@H]5C(=O)N(C)CC(=O)N(C)[C@@H](C(C)C)C(=O)O[C@@H]4C)c3nc-2c(C(=O)N[C@@H]2C(=O)N[C@H](C(C)C)C(=O)N3CCC[C@H]3C(=O)N(C)CC(=O)N(C)[C@@H](C(C)C)C(=O)O[C@@H]2C)c(N)c1=O [Dactinomycin] (I: T[dV]P[Sar][NMeV] / II: T[dV]P[Sar][NMeV]; ester I:1-I:C, II:1-II:C; linker I:N-II:N via Actinocin(9to1))
relative JC-1 red fluorescence
Settings | 8 h | 16 h | 24 h | 32 h | 40 h | 48 h | 56 h | 64 h | 72 h
0.1 µM, coculture fibroblast: C12385 | 0.84 | 0.808 | 0.781 | 0.746 | 0.683 | 0.686 | 0.685 | 0.674 | 0.683
0.1 µM, coculture fibroblast: H6013 | 0.763 | 0.7021 | 0.657 | 0.6299 | 0.581 | 0.581 | 0.563 | 0.555 | 0.49
0.1 µM, coculture fibroblast: H6019 | 0.815 | 0.724 | 0.681 | 0.646 | 0.615 | 0.608 | 0.578 | 0.569 | 0.558
0.1 µM, coculture fibroblast: H6076 | 0.81051 | 0.785 | 0.732 | 0.686 | 0.6334 | 0.63 | 0.618 | 0.598 | 0.622
0.1 µM, coculture fibroblast: H6231 | 0.809 | 0.871 | 0.776 | 0.627 | 0.672 | 0.623 | 0.567 | 0.518 | 0.486
0.1 µM, coculture fibroblast: HADF | 0.773 | 0.743 | 0.721 | 0.708 | 0.62 | 0.615 | 0.596 | 0.594 | 0.534
0.1 µM, coculture fibroblast: HCFa | 0.821 | 0.746 | 0.713 | 0.682 | 0.622 | 0.627 | 0.602 | 0.6031 | 0.529
0.1 µM, coculture fibroblast: HCPF | 0.8135 | 0.85 | 0.797 | 0.692 | 0.717 | 0.696 | 0.673 | 0.648 | 0.65
0.1 µM, coculture fibroblast: HHSteC | 0.847 | 0.794 | 0.746 | 0.695 | 0.635 | 0.627 | 0.596 | 0.581 | 0.502
0.1 µM, coculture fibroblast: HMF | 0.78 | 0.804 | 0.705 | 0.629 | 0.61 | 0.56 | 0.51 | 0.483 | 0.468
0.1 µM, coculture fibroblast: HPFa | 0.893 | 0.834 | 0.834 | 0.749 | 0.698 | 0.692 | 0.646 | 0.62 | 0.6
0.1 µM, coculture fibroblast: HUF | 0.885 | 0.823 | 0.7193 | 0.636 | 0.577 | 0.564 | 0.536 | 0.522 | 0.513
0.1 µM, coculture fibroblast: Hs5 | 0.859 | 0.849 | 0.817 | 0.815 | 0.7394 | 0.721 | 0.703 | 0.687 | 0.703
0.1 µM, coculture fibroblast: Hs27A | 0.741 | 0.697 | 0.665 | 0.673 | 0.59 | 0.62 | 0.594 | 0.598 | 0.533
0.1 µM, coculture fibroblast: Hs343T | 0.825 | 0.85 | 0.792 | 0.703 | 0.6704 | 0.619 | 0.578 | 0.555 | 0.531
0.1 µM, coculture fibroblast: WS1 | 0.7932 | 0.7247 | 0.673 | 0.617 | 0.586 | 0.579 | 0.559 | 0.546 | 0.54
1 µM, coculture fibroblast: C12385 | 0.781 | 0.699 | 0.637 | 0.57 | 0.517 | 0.507 | 0.498 | 0.482 | 0.49
1 µM, coculture fibroblast: H6013 | 0.675 | 0.571 | 0.517 | 0.474 | 0.429 | 0.431 | 0.414 | 0.407 | 0.353
1 µM, coculture fibroblast: H6019 | 0.7586 | 0.654 | 0.5965 | 0.526 | 0.47 | 0.456 | 0.414 | 0.398 | 0.3889
1 µM, coculture fibroblast: H6076 | 0.794 | 0.731 | 0.709 | 0.714 | 0.647 | 0.647 | 0.627 | 0.61 | 0.632
1 µM, coculture fibroblast: H6231 | 0.774 | 0.735 | 0.654 | 0.633 | 0.562 | 0.543 | 0.512 | 0.498 | 0.5
1 µM, coculture fibroblast: HADF | 0.737 | 0.675 | 0.622 | 0.604 | 0.519 | 0.501 | 0.47 | 0.454 | 0.402
1 µM, coculture fibroblast: HCFa | 0.754 | 0.665 | 0.621 | 0.587 | 0.528 | 0.512 | 0.49 | 0.475 | 0.428
1 µM, coculture fibroblast: HCPF | 0.7774 | 0.785 | 0.737 | 0.6656 | 0.658 | 0.625 | 0.583 | 0.5615 | 0.561
1 µM, coculture fibroblast: HHSteC | 0.806 | 0.72 | 0.672 | 0.621 | 0.557 | 0.543 | 0.513 | 0.494 | 0.437
1 µM, coculture fibroblast: HMF | 0.774 | 0.77061 | 0.712 | 0.6729 | 0.641 | 0.622 | 0.592 | 0.566 | 0.554
1 µM, coculture fibroblast: HPFa | 0.835 | 0.711 | 0.659 | 0.579 | 0.535 | 0.538 | 0.511 | 0.51 | 0.501
1 µM, coculture fibroblast: HUF | 0.814 | 0.743 | 0.684 | 0.618 | 0.567 | 0.554 | 0.516 | 0.507 | 0.497
1 µM, coculture fibroblast: Hs5 | 0.863 | 0.884 | 0.83 | 0.785 | 0.73 | 0.686 | 0.663 | 0.639 | 0.643
1 µM, coculture fibroblast: Hs27A | 0.684 | 0.601 | 0.556 | 0.556 | 0.47 | 0.491 | 0.461 | 0.457 | 0.385
1 µM, coculture fibroblast: Hs343T | 0.787 | 0.793 | 0.729 | 0.665 | 0.635 | 0.605 | 0.57 | 0.558 | 0.548
1 µM, coculture fibroblast: WS1 | 0.775 | 0.6645 | 0.589 | 0.518 | 0.461 | 0.436 | 0.402 | 0.387 | 0.372

Source: the supplement of paper PMC6078165
